# Inconclusive means that the source gave no clear call. Such entries were picked first, then a sample of the others. For some of these results: A potency beside an inconclusive call is a rough fit, not a confirmed value. The source made the active and inactive calls. The call rests on the fitted dose curve; in most records, active means well fitted curve in the direction sought with a large enough effect; inconclusive means small, poorly fitted or top-dose-only effect, or another doubt; inactive means no such curve, though single readings can be large; an effect the other way counts as inactive or inconclusive.
# Sequences of proteins named here, by UniProt entry; tags and fusion partners are left off. A change or cut given only in a name is not applied to a line headed by its entry.
# UniProt O15648: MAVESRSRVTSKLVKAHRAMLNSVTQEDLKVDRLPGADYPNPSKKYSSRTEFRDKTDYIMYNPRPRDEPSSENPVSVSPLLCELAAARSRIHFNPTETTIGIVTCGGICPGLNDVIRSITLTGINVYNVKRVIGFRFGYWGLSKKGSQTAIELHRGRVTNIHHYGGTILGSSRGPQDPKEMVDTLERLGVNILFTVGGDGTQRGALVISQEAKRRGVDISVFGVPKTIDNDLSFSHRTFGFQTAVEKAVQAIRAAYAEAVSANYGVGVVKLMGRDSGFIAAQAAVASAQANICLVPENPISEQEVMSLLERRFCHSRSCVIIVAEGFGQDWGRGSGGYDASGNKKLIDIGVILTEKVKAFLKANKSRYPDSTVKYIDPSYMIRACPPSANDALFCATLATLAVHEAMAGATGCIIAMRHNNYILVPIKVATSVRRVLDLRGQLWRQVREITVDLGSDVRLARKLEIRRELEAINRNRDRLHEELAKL
# UniProt P83916, whole entry, looked up: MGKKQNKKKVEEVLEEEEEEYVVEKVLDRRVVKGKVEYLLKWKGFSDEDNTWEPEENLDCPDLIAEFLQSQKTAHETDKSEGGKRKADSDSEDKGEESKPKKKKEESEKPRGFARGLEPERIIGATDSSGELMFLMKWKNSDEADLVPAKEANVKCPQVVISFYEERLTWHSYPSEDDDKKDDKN
# UniProt Q96QE3: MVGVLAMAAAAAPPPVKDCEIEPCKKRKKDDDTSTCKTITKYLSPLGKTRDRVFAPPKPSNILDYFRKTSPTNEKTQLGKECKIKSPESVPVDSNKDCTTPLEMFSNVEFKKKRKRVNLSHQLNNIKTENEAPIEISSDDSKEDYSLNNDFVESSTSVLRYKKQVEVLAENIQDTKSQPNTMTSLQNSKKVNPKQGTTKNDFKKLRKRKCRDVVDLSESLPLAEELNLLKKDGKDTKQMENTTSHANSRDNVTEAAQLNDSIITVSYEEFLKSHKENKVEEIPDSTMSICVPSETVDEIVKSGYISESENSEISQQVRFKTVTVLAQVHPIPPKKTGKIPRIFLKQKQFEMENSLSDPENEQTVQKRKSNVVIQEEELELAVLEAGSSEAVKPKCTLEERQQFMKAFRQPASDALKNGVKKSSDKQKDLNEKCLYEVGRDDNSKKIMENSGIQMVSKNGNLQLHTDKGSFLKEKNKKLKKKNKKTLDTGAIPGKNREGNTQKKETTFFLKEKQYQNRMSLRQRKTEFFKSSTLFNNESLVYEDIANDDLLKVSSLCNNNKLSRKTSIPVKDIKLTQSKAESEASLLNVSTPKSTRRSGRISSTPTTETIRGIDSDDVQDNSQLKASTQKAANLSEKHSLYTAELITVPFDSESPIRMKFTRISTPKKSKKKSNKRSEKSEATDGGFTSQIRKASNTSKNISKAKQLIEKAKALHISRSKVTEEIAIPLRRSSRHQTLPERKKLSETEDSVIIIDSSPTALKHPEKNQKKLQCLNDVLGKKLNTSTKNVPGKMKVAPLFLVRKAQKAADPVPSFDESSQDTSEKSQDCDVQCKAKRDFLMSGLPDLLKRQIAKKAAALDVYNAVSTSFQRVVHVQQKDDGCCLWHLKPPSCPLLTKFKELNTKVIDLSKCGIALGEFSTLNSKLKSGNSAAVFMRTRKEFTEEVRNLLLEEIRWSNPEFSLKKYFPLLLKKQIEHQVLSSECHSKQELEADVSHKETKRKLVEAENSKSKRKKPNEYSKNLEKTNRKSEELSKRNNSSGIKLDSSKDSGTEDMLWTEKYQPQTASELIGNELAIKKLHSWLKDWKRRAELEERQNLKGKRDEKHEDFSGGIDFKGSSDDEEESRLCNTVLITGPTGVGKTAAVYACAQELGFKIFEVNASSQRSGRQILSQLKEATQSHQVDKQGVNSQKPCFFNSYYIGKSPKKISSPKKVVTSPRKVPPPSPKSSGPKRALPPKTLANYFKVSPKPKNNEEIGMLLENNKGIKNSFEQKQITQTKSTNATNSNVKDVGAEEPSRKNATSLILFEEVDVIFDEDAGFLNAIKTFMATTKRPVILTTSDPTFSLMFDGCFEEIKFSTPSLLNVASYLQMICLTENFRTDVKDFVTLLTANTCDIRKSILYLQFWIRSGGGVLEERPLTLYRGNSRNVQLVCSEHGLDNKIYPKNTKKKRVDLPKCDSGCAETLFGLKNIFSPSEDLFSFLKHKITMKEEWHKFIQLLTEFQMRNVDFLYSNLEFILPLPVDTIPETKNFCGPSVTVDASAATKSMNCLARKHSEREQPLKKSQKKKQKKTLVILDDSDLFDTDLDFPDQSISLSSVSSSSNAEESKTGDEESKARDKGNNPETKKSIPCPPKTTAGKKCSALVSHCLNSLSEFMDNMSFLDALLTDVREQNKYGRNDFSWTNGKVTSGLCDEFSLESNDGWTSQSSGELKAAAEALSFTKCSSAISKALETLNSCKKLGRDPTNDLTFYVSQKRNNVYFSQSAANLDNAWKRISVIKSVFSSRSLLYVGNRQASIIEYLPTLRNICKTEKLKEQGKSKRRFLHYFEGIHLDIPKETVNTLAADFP
# UniProt Q9UGL1: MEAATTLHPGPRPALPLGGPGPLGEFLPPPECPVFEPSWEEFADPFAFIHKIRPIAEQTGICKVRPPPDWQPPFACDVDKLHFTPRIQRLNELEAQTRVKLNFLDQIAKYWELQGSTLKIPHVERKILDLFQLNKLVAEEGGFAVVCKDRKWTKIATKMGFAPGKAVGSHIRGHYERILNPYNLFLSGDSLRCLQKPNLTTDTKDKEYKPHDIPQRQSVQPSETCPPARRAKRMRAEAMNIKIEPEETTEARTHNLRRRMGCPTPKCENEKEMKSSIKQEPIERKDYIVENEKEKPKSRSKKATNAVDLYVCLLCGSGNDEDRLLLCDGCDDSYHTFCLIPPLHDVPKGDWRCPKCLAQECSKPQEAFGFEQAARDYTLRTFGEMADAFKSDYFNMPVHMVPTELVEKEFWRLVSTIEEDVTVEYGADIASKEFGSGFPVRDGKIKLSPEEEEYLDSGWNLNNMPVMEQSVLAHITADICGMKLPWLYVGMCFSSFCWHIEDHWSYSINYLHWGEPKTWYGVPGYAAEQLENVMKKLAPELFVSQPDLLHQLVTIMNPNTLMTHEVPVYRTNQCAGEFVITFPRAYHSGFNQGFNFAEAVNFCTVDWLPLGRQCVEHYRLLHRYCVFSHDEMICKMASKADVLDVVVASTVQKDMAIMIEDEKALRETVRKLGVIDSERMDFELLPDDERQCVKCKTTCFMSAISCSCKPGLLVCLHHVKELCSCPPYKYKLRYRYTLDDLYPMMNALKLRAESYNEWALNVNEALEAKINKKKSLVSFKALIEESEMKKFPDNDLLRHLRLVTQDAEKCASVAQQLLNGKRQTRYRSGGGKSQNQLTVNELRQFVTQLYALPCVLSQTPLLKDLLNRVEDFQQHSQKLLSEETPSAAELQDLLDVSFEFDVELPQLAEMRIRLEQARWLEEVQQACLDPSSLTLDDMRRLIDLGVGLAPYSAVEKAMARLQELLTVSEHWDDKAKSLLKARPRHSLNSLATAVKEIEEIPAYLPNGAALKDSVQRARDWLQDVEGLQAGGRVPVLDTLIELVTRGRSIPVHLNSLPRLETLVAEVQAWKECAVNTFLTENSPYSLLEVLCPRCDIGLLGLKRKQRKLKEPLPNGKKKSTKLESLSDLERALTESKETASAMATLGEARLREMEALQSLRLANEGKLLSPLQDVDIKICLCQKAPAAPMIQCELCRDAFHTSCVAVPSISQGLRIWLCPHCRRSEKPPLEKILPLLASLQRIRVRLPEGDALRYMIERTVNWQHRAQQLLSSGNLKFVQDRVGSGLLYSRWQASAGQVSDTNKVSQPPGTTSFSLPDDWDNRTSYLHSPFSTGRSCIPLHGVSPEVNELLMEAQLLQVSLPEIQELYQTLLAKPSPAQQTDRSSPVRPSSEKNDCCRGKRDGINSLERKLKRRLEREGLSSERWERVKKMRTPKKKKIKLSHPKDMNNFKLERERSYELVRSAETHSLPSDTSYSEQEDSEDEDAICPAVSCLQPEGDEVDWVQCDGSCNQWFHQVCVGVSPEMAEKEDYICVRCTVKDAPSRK
# UniProt P00784: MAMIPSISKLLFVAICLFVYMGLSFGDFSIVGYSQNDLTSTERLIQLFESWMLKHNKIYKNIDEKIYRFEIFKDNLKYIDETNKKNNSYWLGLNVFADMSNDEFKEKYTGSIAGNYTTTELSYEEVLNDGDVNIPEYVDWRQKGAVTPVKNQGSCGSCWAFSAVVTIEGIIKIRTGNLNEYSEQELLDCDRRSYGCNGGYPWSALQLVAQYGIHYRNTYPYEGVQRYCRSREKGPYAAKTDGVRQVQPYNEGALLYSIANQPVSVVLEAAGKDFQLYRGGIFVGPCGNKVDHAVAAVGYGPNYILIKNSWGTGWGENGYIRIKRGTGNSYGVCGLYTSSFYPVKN
# How the values were obtained:
# [1] = biological target: ATP-dependent 6-phosphofructokinase (Trypanosoma brucei brucei) (UniProt O15648); assay: qHTS Validation Assay to Find Inhibitors of T. brucei phosphofructokinase (AID 485368)
# In short: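 Enzyme reaction in triethanolamine buffer pH 8.0 with 5 mM MgCl2, 0.01% Tween20 and 0.1% BSA; PFK 1.25 nM, F6P 0.5 mM, ATP 0.1 mM, 45 min RT. ADP quantified by ADP-Glo.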
# [2] = biological target: Chromobox protein homolog 1 (Homo sapiens) (UniProt P83916); assay: qHTS Validation Assay for Inhibitors of HP1-beta Chromodomain Interactions with Methylated Histone Tails (AID 488953); further: potency means the concentration at half of the fitted maximal effect; nearly all actives have a fitted effect of over 50% in size
# In short: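 HP1-beta (50 nM) was preincubated 30 min at room temperature with biotinylated H3(1-18)K9me3 peptide (50 nM) in PBS pH 7.4, 0.01% Tween-20, then with compounds 30 min. AlphaScreen signal was read after streptavidin donor/nickel chelate acceptor beads (10 ug/mL final).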
# [3] = biological target: ATPase family AAA domain-containing protein 5 (Homo sapiens) (UniProt Q96QE3); assay: Validation screen for small molecules that inhibit ELG1-dependent DNA repair in human embryonic kidney (HEK293T) cells expressing luciferase-tagged ELG1 (AID 493107); conditions: HEK293T ELG1-luciferase level, luminescence, 5-fluorouridine co-treatment, 16 h; activity change, negative = decrease: at 46.1 µM (top of the series);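 further: cells co-treated with the DNA-damaging agent 5-fluorouridine alongside compound; on the % scale 0 is the no-effect control and ±100 the full control effect; inhibitors lower the ELG1-luciferase luminescence signal; nearly all actives have a fitted effect of over 70% in size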
# In short: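 HEK293T cells expressing luciferase-tagged ELG1 were co-treated with 5-fluorouridine and compound or DMSO for 16 hr at 37 °C, 5% CO2. Luciferase activity was then read with ONE-Glo after 30 min at room temperature; suppressed signal indicates blocked ELG1 function.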
# [4] = qHTS for Inhibitors of ATXN expression: Validation of Cytotoxic Assay (AID 588349); further: potency means the concentration at half of the fitted maximal effect
# In short: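 HEK293 cells were dosed with titrated compounds for 72 hr at 37 degrees C. Viability was read by CellTiter Glo luminescence, with intracellular ATP as the marker of cell survival.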
# [5] = biological target: Lysine-specific demethylase 5B (Homo sapiens) (UniProt Q9UGL1); assay: Optimization screen for KDM5B Histone Demethylases FDH coupled qHTS against the LOPAC library (AID 1347166); conditions: KDM5B demethylation, FDH-coupled NADH fluorescence; activity, negative = inhibition: at 57.5 µM (top of the series) unless noted; further: 0% is about no effect
# In short: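 KDM5BDeltaAP (200nM final) preincubated 10 min with compound, then 12.5uM H3K4Me3, 25uM a-ketoglutarate, ascorbate, Fe(II), NAD+ and FDH added; 50mM HEPES pH 7.5, 0.01% Tween-20. NADH fluorescence (340/450 nm) change over 30 min, room temperature.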
# [6] = qHTS to identify inhibitors of the type 1 interferon - major histocompatibility complex class I in skeletal muscle: primary screen against the NCATS LOPAC collection (AID 1347405);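 further: lytic HiBiT luminescence reporting HLA-B protein level; potency means the concentration at half of the fitted maximal effect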
# In short: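 Immortalized human C25cl48 myoblasts with HiBiT knocked into endogenous HLA-B*08:01 were stimulated with 4.0 ng/ml IFN-beta and given compounds in a 7-point, 1:4.3 titration from 46 uM final; after 24 hrs, lytic HiBiT luminescence was read.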
# [7] = Primary qHTS for inhibitors of La Crosse Virus (LACV) - induced cell death in SH-SY5Y cells (AID 1508616); further: potency means the concentration at half of the fitted maximal effect
# In short: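 Luminescent ATP readout (ATPLite 1step, 5 min room temperature) measured rescue from LACV-induced death after 6 days of infection at 0.01 MOI; normalized to infected DMSO wells and uninfected DMSO wells.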
# Papain (Carica papaya) = Papain (Carica papaya) (UniProt P00784); assay: Primary qHTS assay for inhibitors of the protease papain (AID 1645873);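 further: papain turnover of Z-FR-AMC read as the AMC fluorescence gain over 10 min; potency means the concentration at half of the fitted maximal effect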
# [8] = qHTS assay to identify inhibitors of the type 1 interferon - major histocompatibility complex class I in skeletal muscle: Counter screen cell viability and HiBit confirmation (AID 1347412); conditions: iHSKM muscle cells + IFN-b, HiBiT or CellTiter-Glo, 24 h; further: potency means the concentration at half of the fitted maximal effect; nearly all actives have a fitted effect of over 60% in size
# In short: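 Luminescence read-out: Nano-Glo HiBiT lytic signal from C-terminally HiBiT-tagged HLA-B in CRISPR-edited human myoblasts, plus CellTiter Glo ATP as viability counter screen. IFN-beta 4.0 ng/ml; 24 hrs treatment at 37 C, 5% CO2.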
# [9] = system: Zika virus NS2B-NS3 protease (linked); assay: 384 well plate NINDS AMC confirmatory qHTS for Zika virus inhibitors (AID 1347163); further: potency means the concentration at half of the fitted maximal effect; nearly all actives have a fitted effect of over 50% in size
# In short: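 Linked protease 5/30/60 nM final; cpds up to 1 mM final, ~15 min preinc. Substrate Ac-VKTGKR-AMC 30 microM final. RT, dark, 25 min; FI ex 355/em 460; normalized to no-enzyme/no-inhibitor ctrls.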
# [10] = Confirmatory screen NINDS Rhodamine qHTS for Zika virus inhibitors (AID 1347161); further: nearly all actives have a fitted effect of over 60% in size; further: potency means the concentration at half of the fitted maximal effect
# In short: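 Enzyme (25 nM, linked NS2B-NS3) was preincubated 15 min with compound in 10 mM Tris-HCl pH 8.0, 0.01% Tween 20. Rhodamine110 substrate (1.5 microM) was then added and fluorescence read at start and after 15 min.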
# [11] = system: Zika virus NS2B-NS3 protease (linked construct); assay: Primary screen NINDS Rhodamine qHTS for Zika virus inhibitors (AID 1347160); further: potency means the concentration at half of the fitted maximal effect; nearly all actives have a fitted effect of over 55% in size
# In short: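 Kinetic fluorescence (Ex 480 nm, Em 540 nm) over 15 min with 1.5 microM Rhodamine110 peptide and 25 nM linked protease.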
# [12] = Primary fluorescence-based thiol-reactive (MSTI) qHTS assay for identification of artifact compounds. (AID 1845221); further: nearly all actives have a fitted effect of over 65% in size; further: potency means the concentration at half of the fitted maximal effect
# In short: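 First, 4 uM MSTI in 2% DMSO/PBS pH 7.4 was dispensed; next, compounds were added; then plates sat 1 h at room temperature without light. Finally, emission at 598 nm was recorded.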
# [13] = system: Zika virus NS2B-NS3 protease (linked construct); assay: 384 well plate NINDS Rhodamine confirmatory qHTS for Zika virus inhibitors (AID 1347164);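 further: fluorescence from protease cleavage of Ac-LKRR-rhodamine 110 substrate; potency means the concentration at half of the fitted maximal effect; nearly all actives have a fitted effect of over 65% in size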
# In short: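 Enzyme (final 5/30/60 nM) + cpd (DMSO), ~15 min; add Ac-LKRR-Rd 10 microM final; 25 min RT, dark; FI ex 485/em 538; normalized to no-enzyme, no-inhibitor ctrls; aprotinin intraplate ctrl.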
# [14] = Primary qHTS for inhibitors of nuclear receptor binding SET domain protein 2 (NSD2) in an RCH-ACV wild type WT cells (2C) (AID 1645877); further: potency means the concentration at half of the fitted maximal effect; nearly all actives have a fitted effect of over 70% in size
# [15] = Tertiary RLuc qRT-PCR qHTS assay for Zika virus inhibitors (AID 1347169); further: potency means the concentration at half of the fitted maximal effect; nearly all actives have a fitted effect of over 55% in size
# In short: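 Vero, 1,000 cells/well, o/n 37 C; cpd pinned in DMSO; ZIKV-RLuc Cambodian, MOI 1-2, 48-72 h 37 C; live-cell RLuc substrate, lum read at 1-1.5 h.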
smiles,measurement,setting,value
O=c1cc(-c2ccccc2F)[nH]c2cc3c(cc12)OCO3,Potency,[1],inactive
same,Potency,[2],"inconclusive: 44.7 µM [inhibitor, partial curve]"
same,Potency,[3],inactive
same,Potency,[4],"inconclusive: 0.355 µM [cytotoxic, partial curve, poor fit]"
same,"activity, negative = inhibition",[5],active: -604%
same,Potency,[6],"inconclusive: 0.631 µM [inhibitor, full curve]"
same,Potency,[7],"inconclusive: 0.1 µM [inhibitor, full curve, poor fit]"
same,Potency,Papain (Carica papaya),"inconclusive: 3.98 µM [inhibitor, full curve]"
same,Potency,[8]; HiBiT,"inconclusive: 0.557 µM [inhibitor, full curve]"
same,Potency,[8]; Viability,"inconclusive: 0.249 µM [cytotoxic, full curve]"
CC1COC2=C1C(=O)C(=O)c1c2ccc2c1CCCC2(C)C (configuration not stated),Potency,[9],"inconclusive: 100 µM [inhibitor, partial curve, poor fit]"
COC(=O)c1ccc([C@H]2Nc3ccc(S(=O)(=O)Nc4ccc(C)cc4)cc3[C@H]3C=CC[C@H]32)cc1,Potency,[10],active: 17.8 µM
same,Potency,[9],"inconclusive: 112 µM [inhibitor, full curve, poor fit]"
O=C(Nc1ccc(C(=O)OCc2cc(=O)n3c4c(sc3n2)CCCC4)cc1)c1ccc(Cl)cc1,Potency,[10],"inconclusive: 31.6 µM [inhibitor, partial curve, poor fit]"
COc1c2c(cc3c1-c1c(cc4c(c1OC)OCO4)CC(C)C(C)C3)OCO2 (configuration not stated),Potency,[11],"inconclusive: 14.1 µM [inhibitor, single point]"
same,Potency,[12],inactive
CON(C)Cc1ccc(O)c2c1C[C@H]1C[C@H]3[C@H](N(C)C)C(=O)C(C(N)=O)=C(O)[C@@]3(O)C(=O)C1=C2O,Potency,[13],"inconclusive: 251 µM [inhibitor, partial curve, poor fit]"
CC(=O)NC(C(=O)OC1CCC(C)(C)C2CC=C3C(=O)OCC3(O)C12C)C(C)C (configuration not stated),Potency,[11],"inconclusive: 10 µM [inhibitor, partial curve, poor fit]"
same,Potency,[14],"inconclusive: 15.9 µM [inhibitor, single point]"
same,Potency,[12],"inconclusive: 11.6 µM [inhibitor, partial curve, poor fit]"
CCc1ccc(S(=O)(=O)Nc2cc3c(C(=O)OCc4ccccc4)c(C)oc3c3ccccc23)cc1,Potency,[10],inactive
same,Potency,[15],"inconclusive: 25.1 µM [inhibitor, single point]"

# Retrieved one by one from the list above (2):
smiles,measurement,setting,value
O=c1cc(-c2ccccc2F)[nH]c2cc3c(cc12)OCO3,Potency,[3],inactive
CC(=O)NC(C(=O)OC1CCC(C)(C)C2CC=C3C(=O)OCC3(O)C12C)C(C)C (configuration not stated),Potency,[14],"inconclusive: 15.9 µM [inhibitor, single point]"
